Measured values as given in paper PMC12207404, “Significance of the CTP-binding motif for the interactions of S. coelicolor ParB with DNA, chromosome segregation, and sporogenic hyphal growth” (Nucleic Acids Research, 2025).
These are yes or no findings as the source states them, for the method shown. Some results given as binding are weak or reduced against the parent protein; the word gives no strength. Where a sequence is shown, tags or fusion partners need not be part of it.

Target: S. coelicolor ParB (ScParB), wild type, bacterial two-hybrid fusion (S. coelicolor) (UniProt Q9RFM2)
Test: two-hybrid; bacterial two-hybrid (BACTH): pUT18C and pKT25 derivatives cotransformed into E. coli BTH101; blue colonies on LB agar with X-gal and 0.5 mM IPTG, 30°C, and β-galactosidase activity (Miller units)

B1: S. coelicolor ParB (ScParB), wild type, bacterial two-hybrid fusion (protein, UniProt Q9RFM2 1-368)
chain: MSERRRGLGRGLGALIPNAPTEKSVASAALGSAASAAPGAMPLLPNERGVAAAKVATLQHVSRETEELTAPQGVEGLRPPMGAHFAEVPLDAITPNPKQPRKDFDDDALAELVTSIREVGLLQPVVVRPTEPGRYELIMGERRFRACRELELDAIPAIVRATEDEKLLLDALLENLHRAQLNPLEEAFAYDQLLKDFNCTHDQLADRIGRSRPQVSNTLRLLKLSPKVQNRVAAGVLSAGHARALLSVDDPEEQDRLAHRIVAEGLSVRSVEEIVTLMGSRPQKPQRAKGPRAGSLVSPALSDLATRLSDRFETRVKVDLGQKKGKITVEFASMDDLERILGSLAPGEGPVLQKGLLEGEDEDGDAES
  binding: binds
